From ChEMBL document CHEMBL3988442, “University of Dundee, Small-Polar-MMV Screening Library” (2021).

Mtb cholesterol medium: 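Whole-cell growth test on Mycobacterium tuberculosis, read after 4 days in a medium based on cholesterol and the lipid DPPC; the read-out is not stated. Tested at 50 µM. The record gives no direction; compounds that gave an IC50 in retests scored well above the rest, so higher reads as more growth inhibition. Size under these conditions: about 69,000 compounds, about 370 of them at 50% or above in at least one test.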
Mtb glucose medium: 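Whole-cell growth test on Mycobacterium tuberculosis, read after 3 days in glucose-containing 7H9 medium; the read-out is not stated. Concentration: 50 µM. Direction is inferred from retests: higher values go with more growth inhibition. Size under these conditions: about 69,000 compounds, about 760 of them at 50% or above in at least one test.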

Results are given as percent effect.
The record does not define 0% and 100%; most values in the screen are far below 50% and negative numbers occur (in some assays of this library far below -100).
The compounds are a random part of those screened.
Two or more numbers in one place are separate tests of the same structure; such repeats can differ widely.

SMILES | Mtb cholesterol medium | Mtb glucose medium
Cc1nnc(NCc2ccccc2F)c(C#N)c1C | -1.321 | 23.24
Cc1ccc(CN2CCOC(C)(c3cnn(C)c3)C2)cc1 (stereo not shown) | -2.96 | 1.275 & 13.56
c1cnc(OCc2nnc3n2CCN(Cc2ccco2)C3)nc1 | 8.916 | -0.9795 & 4.257
CN(C)C1CCCN(C(=O)c2cccc(-c3ncc[nH]3)c2)CC1 (stereo not shown) | -10.5 | 9.466
Cc1nc2c(c(NCCCN3CCOCC3)n1)CCN(C)C2 | 8.639 & 19.86 | 10.62
CN(C)c1nccc(C2CN(c3ccccc3)CCO2)n1 (stereo not shown) | -0.6173 & -1.314 | 12.6
O=C(NC1CC1)N1CCOCC2(C1)CN(c1ccccc1)C(=O)CO2 (stereo not shown) | -5.556 | 13.57
O=C(O)C(F)(F)F.[H][C@@]12CCN(C(=O)c3cccn3C)C[C@]1([H])[C@@H](CN(C)C)OC2 | 9.858 | 25.22
O=C(c1csc(C2CC2)n1)N1CCCCC1Cn1cccn1 (stereo not shown) | 5.007 | -16.22
CC(C)Cc1noc(CNc2ccccc2CC(=O)N(C)C)n1 | -11.09 | 9.248
COCCNC(=O)C1CN(C(N)=O)Cc2ccnn2C1 (stereo not shown) | -7.064 | -23.31
Cc1ccc(C2CN(C(=O)NCc3nnc4ccccn34)CCO2)o1 (stereo not shown) | -11.51 | -1.865 & -2.8
Cc1nc(O)cc(C2CCN(C(=O)CN(C)c3ccccc3)CC2)n1 | 11.56 | 27.87
COCc1noc(-c2ccc(N(C)Cc3cc(C)no3)nc2)n1 | 27.02 | 38.16
[H][C@@]12C[C@@H](OCCOC)CN1CCN(C(=O)c1cnccn1)C2 | 8.783 | 6.821
Cc1cc(Br)oc1C(=O)N1CCN(CC(N)=O)CC1 | -14.43 & -4.56 | -25.56
CC(=O)N1CCC(N2CCOC[C@H]2c2nc(-c3ccccc3)c[nH]2)CC1 | 8.049 | 15.39 & -4.442
Cc1cc(C(=O)OCC2CCCN2C(N)=O)c(C)o1 (stereo not shown) | 9.725 | 13.72
C=C(C)CN(CC)Cc1nc(C(C)(C)C)no1 | 3.503 & 15.9 | 22.17 & 0.3858
[H][C@@]12CCN(S(=O)(=O)C3CC3)[C@@]1([H])CCN2C(=O)c1ccoc1 | -5.347 | 2.487 & 14.83
[H][C@@]12CCN(S(=O)(=O)C3CC3)C[C@@]1([H])O[C@H](c1ccnc(C)n1)C2 | 6.239 | 7.54
Cc1cc(C2CCCN2C(=O)Nc2cn[nH]c2)on1 (stereo not shown) | -3.707 | -9.009 & -3.924
CCC(C(=O)NCCc1ccn(-c2ccccc2)n1)N1CCCC1=O (stereo not shown) | -9.613 | 8.571
O=C(Cc1cccc2cccnc12)N1CCCN(c2cccnn2)CC1 | 7.992 | 18.96
Cc1nc(CN(C)CC2CCCN(CCc3ccc(Cl)cc3)C2)no1 (stereo not shown) | -3.838 | 19.52
CCOC1(C)C(=O)c2ccccc2N1Nc1ccccc1C(=O)CC (stereo not shown) | -15.95 | 10.97
O=C(O)C(F)(F)F.O=C(O)C(F)(F)F.[H][C@]12C[C@@H](CN3CCCC3)N(C)[C@@]1([H])CCN(C(=O)Cc1cccs1)C2 | 2.657 | -45.3
COC1CN(C(=O)CC(C)C)CCC(=O)N(C)c2ccccc21 (stereo not shown) | -13.85 | -16.52
CC(=O)N1CC2(CCCN(Cc3ccc(Cl)cc3)C2)Cc2ccccc21 (stereo not shown) | 17.08 | 10.94
COc1ccc2c(c1)nc1n2[C@@H](CNC(=O)c2ccccn2)COC1 | 12.12 | 19.7 & -14.92
CCOCc1nc2c(c(N3CC=CC3)n1)CCN(Cc1ccco1)CC2 | -10.28 | -5.256 & 14.23
CCN(Cc1ccc(O)c(C(=O)O)c1)CC1CCOCC1 | -10.21 | -27.26
Clc1ccc(-c2nc(CN3CCCC3Cn3cncn3)co2)cc1 (stereo not shown) | 4.19 | 9.078
CCOC(C(=O)N1CCn2c(nnc2C(C)C)C1)c1ccccc1 (stereo not shown) | -49.74 | -76.22 & -6.032
CCS(=O)(=O)N1CCCC2(CCCN2Cc2cccc(Cl)c2)C1.O=C(O)C(F)(F)F (stereo not shown) | -2.736 | -15.64 & 6.14
Cc1nn(C)c(C)c1C1CCCN1C(=O)c1cnc2n[nH]c(C)c2c1 (stereo not shown) | -1.437 | 14.36
O=C(c1ccccc1)N1CCN(CC(O)c2ccc(F)cc2)CC1 (stereo not shown) | 4.003 | 1.353 & -26.38
O=C(O)c1ccc(CCNC(=O)C2(c3ccccc3)CC2)cc1 | 0.2568 & -153.9 | 12.98
Cc1n[nH]cc1CNCc1ccnc(OCC(F)(F)F)c1.Cl | -0.6252 | 8.005 & 24.7
[H][C@]12CCN(C(=O)c3ccccc3C)C[C@@]1([H])OCCN(c1ncccn1)C2 | 14.78 & 9.926 | 89.31
O=C(CCCNc1ncccn1)Nc1ccc(Cn2cncn2)cc1 | -2.942 | 17.9 & -0.02109
CO[C@@H]1CCC[C@@H](N(C)C(=O)c2cc(F)ccc2F)[C@H]1O | 1.125 | -16.53
O=C(c1cc(COc2ccc3c(c2)OCO3)[nH]n1)N1CCCC1 | 34.25 | 38.61
NS(=O)(=O)CCCNC(=O)c1cnc(-c2ccsc2)s1 | -5.652 & -16.09 | -16.64
CCN(C)S(=O)(=O)N(CC)Cc1ccc2c(c1)OCO2 | -17.31 | 20.11
CN1CCCC1c1cncc(C(=O)NCc2ccccc2)n1 (stereo not shown) | 12.71 | 23.95
Cn1cc(N2CCCC(SCc3nc(C4CC4)no3)C2=O)cn1 (stereo not shown) | -2.267 | 11.91
COc1ccc2[nH]cc(CCNC(=O)C3CCCN(C(C)=O)C3)c2c1 (stereo not shown) | 7.606 | 10.15
O=C(NC1CCN(Cc2cccc3c2OCCO3)CC1)c1cccs1 | -25.04 | -26.77
CN(Cc1ccc(F)cc1)CC1(O)CCN(C(=O)c2ccncc2)C1 (stereo not shown) | 4.03 | -8.034
CC(CC(=O)O)CC(=O)Nc1sc2c(c1C(N)=O)CCc1ccccc1-2 (stereo not shown) | 3.672 | -21.91
Cc1ccc(N2CCC3(CCN(C(=O)C4CCOC4)CC3)CC2)nn1 (stereo not shown) | -6.512 | -38.99 & -4.945
CSCc1cc(F)ccc1CNC(=O)N1CCCC(CO)C1 (stereo not shown) | -3.325 & -15.04 | 16.56
N#Cc1ccc(C(=O)N2CCCSCC2CN2CCCC2)cc1 (stereo not shown) | 8.836 | 12.91
Cc1nccc(-c2cccc(NCC(=O)N3CCCCCCC3)c2)n1 | -20.28 | -4.422
CCN1C(=O)CCCC12CCCN(C(=O)c1conc1C)C2 (stereo not shown) | 8.095 | -7.438
CCN(CC)C(=O)CNC(=O)c1c[nH]c2ccc(OC)cc12 | -5.675 | 7.247
CC(=O)N1CCC[C@H]1C(=O)NCCCN(C(C)C)S(C)(=O)=O | -3.818 | 19
CO[C@@H]1CN(c2ccccc2)S(=O)(=O)[C@@]12CCN(CC1CC1)C2 | 7.06 | -7.749
CNc1[nH]nc(N)c1C(=O)Nc1ccc(OC)cc1 | -17.36 | -9.585
[H][C@@]12OCCN(C(=O)c3nn(C)c4ccccc34)[C@@]1([H])CC[C@H]2OC | 6.454 | -20.3
O=C(O)C(F)(F)F.[H][C@@]12CN(CCC(C)C)C[C@]1([H])OCCN2c1ncc(F)cn1 | -5.833 | -11.31
O=C(Nc1ccccn1)NC(CCCO)c1ccccc1 (stereo not shown) | 10.1 | -13.7
CC1(C)CNC(=O)c2nc(C3CCCN(C(=O)C4CC4)C3)[nH]c2C1 (stereo not shown) | -14.35 | 5.053
COC1COC2(CCN(Cc3ccccc3F)CC2)C1.O=C(O)C(F)(F)F (stereo not shown) | -10.47 | -6.274

The last 7 entries again:

- CO[C@@H]1CN(c2ccccc2)S(=O)(=O)[C@@]12CCN(CC1CC1)C2 : Mtb cholesterol medium: 7.06%; Mtb glucose medium: -7.749%
- CNc1[nH]nc(N)c1C(=O)Nc1ccc(OC)cc1 : Mtb cholesterol medium: -17.36%; Mtb glucose medium: -9.585%
- [H][C@@]12OCCN(C(=O)c3nn(C)c4ccccc34)[C@@]1([H])CC[C@H]2OC : Mtb cholesterol medium: 6.454%; Mtb glucose medium: -20.3%
- O=C(O)C(F)(F)F.[H][C@@]12CN(CCC(C)C)C[C@]1([H])OCCN2c1ncc(F)cn1 : Mtb cholesterol medium: -5.833%; Mtb glucose medium: -11.31%
- O=C(Nc1ccccn1)NC(CCCO)c1ccccc1 (stereo not shown) : Mtb cholesterol medium: 10.1%; Mtb glucose medium: -13.7%
- CC1(C)CNC(=O)c2nc(C3CCCN(C(=O)C4CC4)C3)[nH]c2C1 (stereo not shown) : Mtb cholesterol medium: -14.35%; Mtb glucose medium: 5.053%
- COC1COC2(CCN(Cc3ccccc3F)CC2)C1.O=C(O)C(F)(F)F (stereo not shown) : Mtb cholesterol medium: -10.47%; Mtb glucose medium: -6.274%